# Test system: p53 signaling (p53RE-bla HCT-116 cells)
# Experiment: cells
# Format: cell-based
# Details: Homo sapiens, HCT-116, read-out: p53 activation EC50, cherry pick confirmation
structure (smiles),measurement,value
CNC(=O)c1ccccc1Sc1ccc2c(/C=C/c3ccccn3)n[nH]c2c1 [Axitinib],EC50,3.82 µM
